PubChem BioAssay AID1224830, NIAID, 2016
This is one part, drawn at random, of about 18,000 reagents. About 2,900 of all reagents (16%) were called active. 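Calls are made per well; low scores hint the gene aids the LPS response, high scores that it dampens it.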 Entries without a mark were called inactive. Repeated entries: four replicate wells of each siRNA pool. No sequences are given here.

- Screen: 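Genes whose knock-down alters the TNF-alpha reporter response to LPS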 (primary screen)
- System: human THP-1 monocytic leukaemia cells, TNF dual-luciferase reporter clone, PMA-differentiated to macrophage-like cells
- Reagent: siRNA pool against human genes, 50 nM
- Time to read-out: LPS for 4 h, given about 3 days after siRNA transfection
- Challenge: bacterial LPS (TLR4 ligand), 10 ng/ml
- Read-out: 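TNF firefly reporter luminescence divided by renilla, normalised to the plate median, then turned into a robust z-score for each replicate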
- Scale: TNF reporter robust z-score: higher = stronger TNF reporter response to LPS
- Active means: 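a well is active when its z-score exceeds 2.8 or falls below -1.5; control wells carry no call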

Target gene	TNF reporter robust z-score
MAGEA12 (MAGE family member A12)	3.39 (active)
MAGEA12 (MAGE family member A12)	3.33 (active)
MAGEA12 (MAGE family member A12)	1.03
MAGEA12 (MAGE family member A12)	5.45 (active)
YPEL5 (yippee like 5)	-1.5
YPEL5 (yippee like 5)	-1.42
YPEL5 (yippee like 5)	-1.19
YPEL5 (yippee like 5)	-1.35
DUSP22 (dual specificity phosphatase 22)	0.08
DUSP22 (dual specificity phosphatase 22)	0.46
DUSP22 (dual specificity phosphatase 22)	-0.6
DUSP22 (dual specificity phosphatase 22)	-0.68
CPNE4 (copine 4)	0.92
CPNE4 (copine 4)	-0.04
CPNE4 (copine 4)	-0.06
CPNE4 (copine 4)	0.66
MRGPRX4 (MAS related GPR family member X4)	-0.99
MRGPRX4 (MAS related GPR family member X4)	-0.11
MRGPRX4 (MAS related GPR family member X4)	0.02
MRGPRX4 (MAS related GPR family member X4)	0
SH3YL1 (SH3 and SYLF domain containing 1)	-0.06
SH3YL1 (SH3 and SYLF domain containing 1)	-0.38
SH3YL1 (SH3 and SYLF domain containing 1)	-0.1
MZF1 (myeloid zinc finger 1)	-0.9
MZF1 (myeloid zinc finger 1)	0.58
MZF1 (myeloid zinc finger 1)	-0.24
MZF1 (myeloid zinc finger 1)	1.15
ETFA (electron transfer flavoprotein subunit alpha)	0.62
ETFA (electron transfer flavoprotein subunit alpha)	0.72
ETFA (electron transfer flavoprotein subunit alpha)	0.65
SLC39A3	0.31
SLC39A3	-0.11
SLC39A3	-0.42
SLC39A3	-0.32
MMP24 (matrix metallopeptidase 24)	-0.59
MMP24 (matrix metallopeptidase 24)	-1.14
MMP24 (matrix metallopeptidase 24)	-0.04
MMP24 (matrix metallopeptidase 24)	-0.01
OSTCP1 (oligosaccharyltransferase complex subunit pseudogene 1)	-0.41
OSTCP1 (oligosaccharyltransferase complex subunit pseudogene 1)	-0.19
OSTCP1 (oligosaccharyltransferase complex subunit pseudogene 1)	-0.71
OSTCP1 (oligosaccharyltransferase complex subunit pseudogene 1)	-0.6
LUZP1 (leucine zipper protein 1)	3.72 (active)
LUZP1 (leucine zipper protein 1)	1.71
LUZP1 (leucine zipper protein 1)	0.24
LUZP1 (leucine zipper protein 1)	0.95
C8G (complement C8 gamma chain)	0.48
C8G (complement C8 gamma chain)	1.82
C8G (complement C8 gamma chain)	1.75
C8G (complement C8 gamma chain)	2.43
DDX39B (DExD-box helicase 39B)	2.23
DDX39B (DExD-box helicase 39B)	0.2
DDX39B (DExD-box helicase 39B)	-0.45
DDX39B (DExD-box helicase 39B)	0.8
TEPSIN (TEPSIN adaptor related protein complex 4 accessory protein)	0.11
TEPSIN (TEPSIN adaptor related protein complex 4 accessory protein)	-0.14
TEPSIN (TEPSIN adaptor related protein complex 4 accessory protein)	0.3
TEPSIN (TEPSIN adaptor related protein complex 4 accessory protein)	-0.39
CLNS1A (chloride nucleotide-sensitive channel 1A)	0.66
CLNS1A (chloride nucleotide-sensitive channel 1A)	0.99
CLNS1A (chloride nucleotide-sensitive channel 1A)	0.54
CLNS1A (chloride nucleotide-sensitive channel 1A)	0.9
SNIP1 (Smad nuclear interacting protein 1)	0.53
SNIP1 (Smad nuclear interacting protein 1)	0.09
SNIP1 (Smad nuclear interacting protein 1)	1.11
SNIP1 (Smad nuclear interacting protein 1)	-0.05
ASCC1 (activating signal cointegrator 1 complex subunit 1)	-1.07
ASCC1 (activating signal cointegrator 1 complex subunit 1)	-0.81
ASCC1 (activating signal cointegrator 1 complex subunit 1)	-1.51 (active)
ASCC1 (activating signal cointegrator 1 complex subunit 1)	-1.89 (active)
GSTA1 (glutathione S-transferase alpha 1)	-1.5
GSTA1 (glutathione S-transferase alpha 1)	-1.41
GSTA1 (glutathione S-transferase alpha 1)	-0.2
GSTA1 (glutathione S-transferase alpha 1)	-0.22

Records above whose target name begins with C or c:
Target gene	TNF reporter robust z-score
CPNE4 (copine 4)	0.92
CPNE4 (copine 4)	-0.04
CPNE4 (copine 4)	-0.06
CPNE4 (copine 4)	0.66
C8G (complement C8 gamma chain)	0.48
C8G (complement C8 gamma chain)	1.82
C8G (complement C8 gamma chain)	1.75
C8G (complement C8 gamma chain)	2.43
CLNS1A (chloride nucleotide-sensitive channel 1A)	0.66
CLNS1A (chloride nucleotide-sensitive channel 1A)	0.99
CLNS1A (chloride nucleotide-sensitive channel 1A)	0.54
CLNS1A (chloride nucleotide-sensitive channel 1A)	0.9

Continued.
Target gene	TNF reporter robust z-score
COLEC10 (collectin subfamily member 10)	-0.07
COLEC10 (collectin subfamily member 10)	-0.7
COLEC10 (collectin subfamily member 10)	-0.29
COLEC10 (collectin subfamily member 10)	-0.58
TEKT5 (tektin 5)	-0.43
TEKT5 (tektin 5)	0.19
TEKT5 (tektin 5)	-0.22
TEKT5 (tektin 5)	0.58
RPL18P4 (ribosomal protein L18 pseudogene 4)	1.69
RPL18P4 (ribosomal protein L18 pseudogene 4)	5.5 (active)
RPL18P4 (ribosomal protein L18 pseudogene 4)	5.04 (active)
RPL18P4 (ribosomal protein L18 pseudogene 4)	0.21
ITGAM (integrin subunit alpha M)	-1.03
ITGAM (integrin subunit alpha M)	-0.87
ITGAM (integrin subunit alpha M)	-1.27
ITGAM (integrin subunit alpha M)	-0.85
OR13G1 (olfactory receptor family 13 subfamily G member 1)	0.31
OR13G1 (olfactory receptor family 13 subfamily G member 1)	0.1
OR13G1 (olfactory receptor family 13 subfamily G member 1)	-0.12
OR13G1 (olfactory receptor family 13 subfamily G member 1)	0.67
RNF19A (ring finger protein 19A, RBR E3 ubiquitin protein ligase)	-0.48
RNF19A (ring finger protein 19A, RBR E3 ubiquitin protein ligase)	-0.23
RNF19A (ring finger protein 19A, RBR E3 ubiquitin protein ligase)	-1.56 (active)
RNF19A (ring finger protein 19A, RBR E3 ubiquitin protein ligase)	-0.5
CCR1 (C-C motif chemokine receptor 1)	1.18
CCR1 (C-C motif chemokine receptor 1)	1.13
CCR1 (C-C motif chemokine receptor 1)	0.13
CCR1 (C-C motif chemokine receptor 1)	2.02
ANKRD2 (ankyrin repeat domain 2)	-0.62
ANKRD2 (ankyrin repeat domain 2)	0.05
ANKRD2 (ankyrin repeat domain 2)	-1
ANKRD2 (ankyrin repeat domain 2)	-0.91
KIF1A (kinesin family member 1A)	-0.15
KIF1A (kinesin family member 1A)	-0.89
KIF1A (kinesin family member 1A)	-0.92
KIF1A (kinesin family member 1A)	-1.23
ADAP1 (ArfGAP with dual PH domains 1)	0.41
ADAP1 (ArfGAP with dual PH domains 1)	1.73
ADAP1 (ArfGAP with dual PH domains 1)	0.81
ADAP1 (ArfGAP with dual PH domains 1)	1.51
CD96 (CD96 molecule)	3.11 (active)
CD96 (CD96 molecule)	1.39
CD96 (CD96 molecule)	0.84
CD96 (CD96 molecule)	0.4
TNNT1 (troponin T1, slow skeletal type)	0.32
TNNT1 (troponin T1, slow skeletal type)	0.87
TNNT1 (troponin T1, slow skeletal type)	2.03
TNNT1 (troponin T1, slow skeletal type)	1.2
TPPP2 (tubulin polymerization promoting protein family member 2)	-0.87
TPPP2 (tubulin polymerization promoting protein family member 2)	-0.7
TPPP2 (tubulin polymerization promoting protein family member 2)	0.01
TPPP2 (tubulin polymerization promoting protein family member 2)	-0.4
TCP11L2 (t-complex 11 like 2)	-0.58
TCP11L2 (t-complex 11 like 2)	-0.59
TCP11L2 (t-complex 11 like 2)	-1.32
TCP11L2 (t-complex 11 like 2)	-0.25
PHOX2B (paired like homeobox 2B)	2.75
PHOX2B (paired like homeobox 2B)	5.19 (active)
PHOX2B (paired like homeobox 2B)	1.52
PHOX2B (paired like homeobox 2B)	3.42 (active)
TPX2 (TPX2 microtubule nucleation factor)	0.67
TPX2 (TPX2 microtubule nucleation factor)	0.96
TPX2 (TPX2 microtubule nucleation factor)	0.71
TPX2 (TPX2 microtubule nucleation factor)	2.01
ZNF790 (zinc finger protein 790)	1.6
ZNF790 (zinc finger protein 790)	1.28
ZNF790 (zinc finger protein 790)	0.07
ZNF790 (zinc finger protein 790)	0.14
